Source: patent publication US20080280820 (published 2008)
Positions of bridges follow the written chain, without caps; N, C: chain ends. Non-standard residues stand in square brackets, D forms with d. *: point of attachment. Palmitoyl = CCCCCCCCCCCCCCCC(=O)*; Hyp = O=C(O)[C@@H]1C[C@@H](O)CN1; Nle = CCCC[C@H](N)C(=O)O

What was measured:
[1] = general procedure: Fmoc solid-phase peptide synthesis; Rink amide polystyrene; HBTU/DIPEA with HOBt/HOAt (1:1); conditions: whole synthesis, scale 3.25 mmol
[2] = general procedure: Fmoc solid-phase peptide synthesis; Rink amide polystyrene resin; HBTU/DIPEA with HOBt/HOAt (1:1); conditions: whole synthesis, UV 214 nm, scale of the general procedure 3.25 mmol

Substance: Palmitoyl-GT[dQ]HT[Nle]E[Hyp][dF]RWK-NH2 (lactam 7-12)
- isolated mass [1]: 617 mg
- isolated yield [1]: 11% yield
- final HPLC purity [2]: 100% purity
